For this assay, the target named is Erwinia chrysanthemi ligand-gated ion channel (ELIC), wild type (Erwinia chrysanthemi) (UniProt P0C7B7). The assay is described as follows: cryo-EM structure; single particle cryo-EM of purified ELIC in MSP1E3D1 nanodiscs (2:1:1 POPC:POPE:POPG or POPC), apo or with 10 mM cysteamine; 10 mM HEPES, 100 mM NaCl, pH 7.5; C5 symmetry used in 3D classification; homopentamer; both purified.

The chains behind the UniProt entries cited, without tags or fusion partners.
UniProt P0C7B7: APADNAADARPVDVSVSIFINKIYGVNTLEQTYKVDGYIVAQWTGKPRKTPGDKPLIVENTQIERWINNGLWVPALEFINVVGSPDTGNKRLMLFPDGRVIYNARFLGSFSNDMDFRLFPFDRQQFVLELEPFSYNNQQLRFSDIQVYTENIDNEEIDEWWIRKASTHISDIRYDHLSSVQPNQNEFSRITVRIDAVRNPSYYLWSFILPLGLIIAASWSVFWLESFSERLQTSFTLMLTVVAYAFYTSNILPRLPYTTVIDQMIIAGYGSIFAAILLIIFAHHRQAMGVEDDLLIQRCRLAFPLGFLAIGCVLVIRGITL

Results are given in words; binding and its absence hold for the method and conditions named. Some entries that bind do so weakly or less than the wild type.

Consider “Erwinia chrysanthemi ligand-gated ion channel (ELIC), wild type (from UniProt P0C7B7 1-321)”, for which the binding result is given as “binds”.

The values are drawn from PMC9668969 (Nature Communications, 2022).
